# This is one part of the list. Shown are side measurements of this screen, not its main read-out; they come without a call. The list favours compounds with an active or inconclusive main result. The note in brackets gives the kind of curve behind each potency; many fits are weak.
# Experiment: qHTS Assay for Lipid Storage Modulators in Drosophila S3 Cells;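 on cell number change: cells counted by Cell Tracker Red CMTPX staining in the red channel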
# Details: BODIPY lipid droplet fluorescence, 18-24 h; for cell number change: measured here: cell count max response, cells fed with added oleic acid
# Method in brief: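 Laser-scanning cytometry quantifies lipid droplet accumulation (500–530 nm total intensity; droplet/cell object ratio) in oleic acid-fed (400 uM added) Drosophila S3 cells treated with a concentration series. 20 uM Triacsin C defined 100% inhibition.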
# [1] = measured here: lipid fluorescence (Fed channel) AC50, cells fed with added oleic acid
# [2] = measured here: cell number channel AC50, cells fed with added oleic acid
compound,measurement,setting,value
Cc1cc(N(CC(=O)O)S(C)(=O)=O)ccc1Br,cell number change,,-22.2%
same,AC50,[1],"1.84 µM [falling, full curve, poor fit]"
COc1ccc(-c2nc3cnccn3c2Nc2ccc3c(c2)OCO3)cc1,cell number change,,4.15%
same,AC50,[1],"8.2 µM [rising, partial curve, poor fit]"
CC(=O)OCC(=O)N1N=C(c2ccc3ccccc3c2)CC1c1ccccc1 (configuration not stated),cell number change,,45.6%
Cc1ccc2c(c1)C(c1ccc(F)cc1)N(C(=O)C1CC1)CC(=O)N2 (configuration not stated),cell number change,,-66%
same,AC50,[2],"3.26 µM [falling, partial curve]"
same,AC50,[1],"0.184 µM [rising, full curve]"
CCOc1cc(C(=O)OCC(=O)Nc2cccc(C)c2)ccc1OCC(=O)N1CCOCC1,cell number change,,31.1%
same,AC50,[2],"29.1 µM [rising, partial curve]"
same,AC50,[1],"25.9 µM [rising, partial curve]"
Cc1cc(C)cc(NC(=O)C2(c3cccs3)CCOCC2)c1,cell number change,,16.2%
same,AC50,[1],"1.46 µM [rising, partial curve]"
CC(=O)Nc1ccc(S(=O)(=O)N2CCN(C(=O)c3ncoc3-c3ccccc3C)CC2)cc1,cell number change,,-9.21%
same,AC50,[1],"5.62 µM [falling, single point]"
CCOC(=O)C(C(=O)Nc1ccc(C)cc1)C1CCCCC1 (configuration not stated),cell number change,,43.8%
same,AC50,[2],"18.4 µM [rising, single point]"
same,AC50,[1],"1.03 µM [rising, full curve, poor fit]"
CS(=O)(=O)Nc1ccc(C2=NN(C(=O)c3ccco3)C(c3ccco3)C2)cc1 (configuration not stated),cell number change,,-3.18%
same,AC50,[1],"6.51 µM [rising, partial curve, poor fit]"
Cn1c(NC(=O)c2ccco2)cc(=O)n(C)c1=O,cell number change,,-0.404%
CNC(=O)c1nnn(Cc2ccccc2)c1NC(C)=O,cell number change,,-18.8%
same,AC50,[1],"0.146 µM [falling, single point]"
C/C(Cl)=C/CSc1nc2c(c(=O)[nH]c(=O)n2C)n1C(C)C,cell number change,,22.4%
same,AC50,[1],"23.1 µM [rising, single point]"
COc1cccc(-c2nnc(NC(=O)c3cccc(F)c3)o2)c1,cell number change,,-30.3%
same,AC50,[2],"23.1 µM [falling, single point]"
same,AC50,[1],"29.1 µM [falling, single point]"
CC(=O)Nc1ccc(N(C(=O)c2ccco2)C(C(=O)NC2CCCC2)c2ccc(N(C)C)cc2)cc1 (configuration not stated),cell number change,,-3.85%
same,AC50,[1],"29.1 µM [falling, single point]"
COc1ccc(C(=O)COC(=O)c2ccc3c(c2)OCCO3)c(OC)c1,cell number change,,-0.792%
same,AC50,[1],"32.6 µM [falling, single point]"
CCc1ccc(/C=N/NC(=O)c2nnn(-c3nonc3N)c2CN2CCc3ccccc32)cc1,cell number change,,-17.1%
CCOC(=O)c1cnc(SCC(=O)Nc2nnc(CC)s2)nc1N,cell number change,,11.7%
same,AC50,[1],"0.00461 µM [falling, full curve, poor fit]"
CC1CN(C(=O)CSc2nnc(-c3cccs3)n2N)CC(C)O1 (configuration not stated),cell number change,,-20.3%
O=S(=O)(c1ccc2ccccc2c1)N1CCN(C(=S)Nc2ccc(F)c(Cl)c2)CC1,cell number change,,3.14%
same,AC50,[1],"0.651 µM [rising, full curve, poor fit]"
COc1ccc(NC(=O)c2cc(S(=O)(=O)N3CCOCC3)ccc2N2CCOCC2)cc1,AC50,[1],"29.1 µM [rising, partial curve, poor fit]"
CCCCn1c(SCc2cc(=O)[nH]c3ccccc23)nc2c1c(=O)n(C)c(=O)n2C,cell number change,,27.4%
same,AC50,[1],"0.651 µM [rising, full curve]"
CC1=C(C(=O)OC2CCCC2)C(c2coc3ccc(C)cc3c2=O)C2=C(CCCC2=O)N1 (configuration not stated),cell number change,,-9.02%
same,AC50,[2],"6.51 µM [falling, single point]"
same,AC50,[1],"4.11 µM [falling, single point]"
CCOC(=O)c1nn(-c2cccc(Cl)c2)c(C)c1C(C)=O,cell number change,,46.9%
C=CCOc1cccc(C2C(C(=O)c3ccc(C)o3)=C(O)C(=O)N2CCN(C)C)c1 (configuration not stated),cell number change,,-1.89%
O=C(COC(=O)c1c2c(nc3ccccc13)/C(=C\c1cccs1)CCC2)Nc1ccccc1Cl,AC50,[1],"1.03 µM [falling, full curve]"
CCN(CC)S(=O)(=O)c1ccc(N2CCOCC2)c(NC(=O)C23CC4CC(CC(Cl)(C4)C2)C3)c1,cell number change,,-4.55%
Cc1ccc(-n2c(-c3ccco3)nc3nc4ccccc4nc32)cc1,cell number change,,1.97%
same,AC50,[1],"0.731 µM [rising, full curve, poor fit]"
Cc1oc(S(=O)(=O)N2CCCCC2)cc1NC(=O)Nc1ccc(Cl)cc1,cell number change,,16.6%
same,AC50,[2],"1.16 µM [rising, full curve, poor fit]"
same,AC50,[1],"0.326 µM [rising, partial curve, poor fit]"
COc1cccc(CNC(=O)Cn2ccc3cc(S(=O)(=O)N4CCC(C)CC4)ccc32)c1,cell number change,,65.7%
same,AC50,[2],"20.6 µM [rising, partial curve, poor fit]"
COc1ccc(C(=O)O)cc1S(=O)(=O)N(CCc1ccccc1)Cc1ccccc1,cell number change,,-20.5%
same,AC50,[2],"7.31 µM [falling, partial curve, poor fit]"
same,AC50,[1],"6.51 µM [falling, single point]"
Cc1ccc(S(=O)(=O)N2CCN(C(=O)[C@H](Cc3ccccc3)NC(=O)c3ccco3)CC2)cc1C,cell number change,,-6.77%
same,AC50,[1],"0.103 µM [falling, full curve, poor fit]"
O=c1[nH]c(CSc2nnc(COc3ccccc3)n2-c2ccccc2)nc2ccccc12,cell number change,,-12.6%
Cc1cccc(NC(=S)NNC(=O)CC(C)O)c1C (configuration not stated),cell number change,,-10.3%
CCc1ccc(N(CC(=O)NC(C)(C)C)C(=O)CNC(=O)c2cccs2)cc1,cell number change,,-34.3%
same,AC50,[2],"9.2 µM [falling, partial curve, poor fit]"
same,AC50,[1],"6.51 µM [rising, partial curve]"
COc1cc(C(=O)OCC(=O)c2cc(C)n(CC3CCCO3)c2C)cc(OC)c1C (configuration not stated),cell number change,,22.7%
Cc1noc(C)c1COC(=O)C1(c2cccc(F)c2)CCCC1,cell number change,,-13.7%
same,AC50,[1],"1.84 µM [rising, single point]"
COc1ccc(CC(=O)Nc2sc(Cc3ccccc3)c(C)c2C(N)=O)cc1,cell number change,,-23.9%
same,AC50,[1],"29.1 µM [falling, single point]"
COCCNc1ncnc2c1cnn2Cc1ccccc1Cl,cell number change,,62%
same,AC50,[2],"16.4 µM [rising, partial curve]"
same,AC50,[1],"6.51 µM [rising, single point]"
CCN1C(=O)c2cccc3c(S(=O)(=O)N(C(=O)c4cccnc4)c4ccc(OC)cc4)ccc1c23,cell number change,,6.6%
same,AC50,[1],"1.64 µM [rising, partial curve, poor fit]"
CS(=O)(=O)N(CC(=O)N1CCN(c2ccc(F)cc2)CC1)c1ccc(F)c(Cl)c1,cell number change,,26.1%
Cc1ccccc1OCC(=O)N(Cc1cccs1)C1CCS(=O)(=O)C1 (configuration not stated),cell number change,,1.99%
same,AC50,[1],"3.26 µM [rising, single point]"
CCOc1ccc(-c2nn3c(-c4ccccc4)nnc3s2)cc1,cell number change,,101%
same,AC50,[2],"13 µM [rising, partial curve]"
same,AC50,[1],"0.92 µM [rising, partial curve]"
COc1cc(/C=C/c2ccc3cccc(O)c3n2)ccc1O,cell number change,,-28%
same,AC50,[1],"16.4 µM [falling, partial curve]"
CN(C)C(=O)CC12CC3CC(C1)CC(CC(=O)N(C)C)(C3)C2,cell number change,,-11%
O=C(Nc1ccc(F)c(Cl)c1)C1CCN(c2ncnc3c2nc2n3CCCCC2)CC1,cell number change,,27.2%
same,AC50,[2],"0.0411 µM [rising, full curve, poor fit]"
same,AC50,[1],"0.731 µM [rising, full curve]"
Clc1ccc(C(c2ccccc2Cl)C(Cl)Cl)cc1 (configuration not stated),cell number change,,-37.6%
same,AC50,[2],"32.6 µM [falling, single point]"
same,AC50,[1],"29.1 µM [falling, single point]"
O=c1cc(-c2ccc([N+](=O)[O-])cc2)c2cc3c(cc2[nH]1)OCCO3,cell number change,,19.6%
same,AC50,[1],"2.91 µM [rising, single point]"
CCc1c(C)[nH]n(CCC#N)c1=O,cell number change,,5.05%
same,AC50,[2],"0.82 µM [rising, single point]"
same,AC50,[1],"0.731 µM [rising, single point]"
N#Cc1c(SC(C(=O)O)c2ccccc2)nc2c(c1-c1cccs1)CCCC2 (configuration not stated),cell number change,,4.06%
Cn1nnnc1SCC(=O)NNC(=O)c1ccc(F)cc1,cell number change,,-36.2%
same,AC50,[2],"4.11 µM [falling, full curve]"
same,AC50,[1],"2.91 µM [falling, full curve]"
CCN(CC)S(=O)(=O)c1cccc(NC(=O)CCSc2ccc(Cl)cc2)c1,cell number change,,-33.3%
same,AC50,[2],"14.6 µM [falling, single point]"
same,AC50,[1],"25.9 µM [falling, single point]"
O=C(COC(=O)C1CCN(c2ccc(C(F)(F)F)cn2)CC1)c1ccccc1,cell number change,,-9%
O=C(c1ccccc1)N1CCCN(c2nccc(C(F)(F)F)n2)CC1,cell number change,,12.2%
same,AC50,[2],"0.00461 µM [rising, full curve, poor fit]"
COc1ccc(C(NC(C)=O)c2nccc3cc(OC)c(OC)cc23)cc1OC (configuration not stated),cell number change,,19%
same,AC50,[1],"29.1 µM [rising, single point]"
CC1CCN(c2ccc3nnc(CCC(=O)Nc4ccc(F)cc4)n3n2)CC1,cell number change,,4.2%
same,AC50,[1],"6.51 µM [falling, single point]"
CCNc1nc(C#N)nc2c1ncn2-c1cc(F)cc(F)c1,cell number change,,-8.47%
COc1cccc(NC(=O)C2CCN(S(=O)(=O)c3ccc4c(c3)OCCO4)CC2)c1,cell number change,,23.7%
same,AC50,[1],"29.1 µM [rising, single point]"
Cc1cc(=O)oc2c(C)c(OCC(=O)N(C)C)ccc12,cell number change,,17.3%
CCC/C(O)=C1\C(=O)CC(c2ccccc2)CC1=NC(C)C(=O)O (configuration not stated),cell number change,,-16.8%
COc1cccc(C(=O)NCC(=O)N/N=C/c2ccc(OC(=O)c3cccs3)c(OC)c2)c1,cell number change,,-32.6%
same,AC50,[2],"0.58 µM [falling, partial curve]"
same,AC50,[1],"0.651 µM [falling, full curve]"

# 7 entries drawn at random from those above:
compound,measurement,setting,value
COc1cccc(CNC(=O)Cn2ccc3cc(S(=O)(=O)N4CCC(C)CC4)ccc32)c1,cell number change,,65.7%
Cc1ccc2c(c1)C(c1ccc(F)cc1)N(C(=O)C1CC1)CC(=O)N2 (configuration not stated),AC50,[1],"0.184 µM [rising, full curve]"
same,cell number change,,-66%
Cc1oc(S(=O)(=O)N2CCCCC2)cc1NC(=O)Nc1ccc(Cl)cc1,AC50,[2],"1.16 µM [rising, full curve, poor fit]"
CS(=O)(=O)Nc1ccc(C2=NN(C(=O)c3ccco3)C(c3ccco3)C2)cc1 (configuration not stated),AC50,[1],"6.51 µM [rising, partial curve, poor fit]"
Cc1ccccc1OCC(=O)N(Cc1cccs1)C1CCS(=O)(=O)C1 (configuration not stated),AC50,[1],"3.26 µM [rising, single point]"
Cc1oc(S(=O)(=O)N2CCCCC2)cc1NC(=O)Nc1ccc(Cl)cc1,cell number change,,16.6%

# — PubChem BioAssay AID2685 (National Center for Advancing Translational Sciences (NCATS), 2010)
